Patent publication US6372495B1, “Bio-artificial organ containing a matrix having hollow fibers for supplying gaseous oxygen” (Seed Capital Investments-2 (SCI-2) B.V., priority 1998, dated 2002)
Structures can show the parent of a compound that is named as a salt.

Test system: cytochrome P450
Experiment: Lidocaine metabolism
Assay type: in vitro ADME, pig

CCN(CC)CC(=O)Nc1c(C)cccc1C [lidocaine, Lidocaine-HCl]
lidocaine elimination and subsequent MEGX and Xylidine production (60 min. incubation, 500 μ/ml, over a period of three days, porcine hepatocytes in bioreactor): did not significantly change
main lidocaine metabolite (first two days of culture, porcine hepatocytes in bioreactor): Xylidine
production of the metabolite GX (incubation with lidocaine for one hour, porcine hepatocytes): did not produce detectable levels
